± gives the standard deviation of the averaged measurements. These are raw signals, not scaled to a control.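 Maximum concentrations were near the MIC for antimicrobials, 500 µM for most other compounds, and as high as 1 mM for known inducer-like compounds. Deletion strains began with a tenfold smaller inoculum, and wells with growth under 10% of the overall median counted as non-growing.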
Tested on: Escherichia coli BW25113
Assay: growth (OD600 area under curve, 8 h) (OD600 x h); higher = more growth
Method: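 E. coli BW25113 reporter strains (wild type, ΔmarA, ΔsoxS, Δrob, each carrying one of 8 lux reporter plasmids) were grown in 40 µl LB in 384-well plates at 37°C, 800 rpm, with each compound at 4 two-fold concentrations, in biological duplicates. Growth is the baseline-corrected OD600 area under the curve over 8 h (0-8 h WT, 1-9 h deletion strains).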

C[C@@H]1O[C@@H]1P(=O)(O)O [Fosfomycin]
growth
Settings | reporter plasmid: EVC | reporter plasmid: acrABp | reporter plasmid: marRABp | reporter plasmid: micFp | reporter plasmid: ompFp | reporter plasmid: robp | reporter plasmid: soxSp | reporter plasmid: tolCp
0.011 µg/ml, genetic background: wild type | 3.04 ± 0.077 | 2.86 ± 0.12 | 3.33 ± 0.023 | 3.12 ± 0.3 | 3.18 ± 0.13 | 3.396 ± 0.011 | 3.223 ± 0.0069 | 3.2729 ± 0.0014
0.011 µg/ml, genetic background: ΔmarA | 3.13 ± 0.6 | 4.14 ± 0.67 | 3.73 ± 0.17 | 3.33 ± 0.97 | 3.59 ± 0.68 | 3.82 ± 0.29 | 2.88 ± 0.6 | 2.87 ± 0.22
0.011 µg/ml, genetic background: Δrob | 2.91 ± 0.079 | 3.23 ± 0.088 | 3.4 ± 0.19 | 3.26 ± 0.27 | 2.83 ± 0.54 | 3.02 ± 0.04 | 3.05 ± 0.22 | 3.182 ± 0.0043
0.011 µg/ml, genetic background: ΔsoxS | 3.29 ± 0.18 | 3.46 ± 0.43 | 3.44 ± 0.93 | 3.04 ± 0.11 | 3.36 ± 0.1 | 3.37 ± 0.079 | 3.38 ± 0.42 | 3.17 ± 0.24
0.023 µg/ml, genetic background: wild type | 2.946 ± 0.00011 | 2.78 ± 0.45 | 3.36 ± 0.056 | 3.13 ± 0.27 | 3.06 ± 0.053 | 3.11 ± 0.23 | 3.07 ± 0.23 | 3.18 ± 0.055
0.023 µg/ml, genetic background: ΔmarA | 3.11 ± 0.32 | 3.98 ± 0.56 | 3.697 ± 0.03 | 3.31 ± 0.89 | 3.54 ± 0.76 | 3.92 ± 0.39 | 2.98 ± 0.77 | 3.03 ± 0.35
0.023 µg/ml, genetic background: Δrob | 3.15 ± 0.32 | 3.2 ± 0.16 | 3.42 ± 0.098 | 3.31 ± 0.28 | 2.85 ± 0.51 | 3.1 ± 0.22 | 3.01 ± 0.29 | 3.33 ± 0.089
0.023 µg/ml, genetic background: ΔsoxS | 3.18 ± 0.18 | 3.52 ± 0.35 | 3.4 ± 0.91 | 2.9 ± 0.2 | 3.36 ± 0.32 | 3.16 ± 0.49 | 3.42 ± 0.34 | 3.23 ± 0.36
0.046 µg/ml, genetic background: wild type | 2.69 ± 0.12 | 3.09 ± 0.29 | 3.37 ± 0.21 | 3.31 ± 0.082 | 3.55 ± 0.068 | 3.62 ± 0.12 | 3.07 ± 0.19 | 3.31 ± 0.09
0.046 µg/ml, genetic background: ΔmarA | 3.24 ± 0.34 | 4.12 ± 0.083 | 3.95 ± 0.11 | 3.37 ± 0.89 | 3.81 ± 0.54 | 4.16 ± 0.22 | 3.04 ± 0.48 | 3.05 ± 0.074
0.046 µg/ml, genetic background: Δrob | 3.13 ± 0.45 | 3.26 ± 0.1 | 3.63 ± 0.34 | 3.36 ± 0.21 | 3.03 ± 0.34 | 3.05 ± 0.15 | 2.87 ± 0.3 | 3.15 ± 0.37
0.046 µg/ml, genetic background: ΔsoxS | 3.4111 ± 0.003 | 3.5 ± 0.5 | 3.53 ± 0.97 | 3.17 ± 0.19 | 3.45 ± 0.17 | 3.27 ± 0.17 | 3.5 ± 0.41 | 3.26 ± 0.12
0.091 µg/ml, genetic background: wild type | 2.2 ± 0.18 | 1.39 ± 0.31 | 1.73 ± 0.27 | 2.29 ± 0.068 | 1.63 ± 0.23 | 2.21 ± 0.17 | 2.29 ± 0.2 | 2.82 ± 0.11
0.091 µg/ml, genetic background: ΔmarA | 2.55 ± 0.056 | 1.91 ± 0.25 | 2.26 ± 0.2 | 2.93 ± 0.81 | 1.89 ± 0.038 | 2.82 ± 1.1 | 2.24 ± 0.3 | 2.55 ± 0.047
0.091 µg/ml, genetic background: Δrob | 2.77 ± 0.42 | 1.83 ± 0.14 | 2.41 ± 0.2 | 2.71 ± 0.18 | 1.69 ± 0.15 | 1.94 ± 0.65 | 2.32 ± 0.12 | 3 ± 0.29
0.091 µg/ml, genetic background: ΔsoxS | 3.021 ± 0.028 | 2.15 ± 0.65 | 1.69 ± 0.21 | 2.5 ± 0.0096 | 1.67 ± 0.3 | 1.6 ± 0.22 | 2.44 ± 0.45 | 3.065 ± 0.005

CC(=O)O[C@H]1C[C@@]2(C)[C@@H](C[C@@H](O)[C@H]3[C@@]4(C)CC[C@@H](O)[C@@H](C)[C@@H]4CC[C@@]32C)/C1=C(\CCC=C(C)C)C(=O)O [Fusidic acid]
growth
Settings | reporter plasmid: EVC | reporter plasmid: acrABp | reporter plasmid: marRABp | reporter plasmid: micFp | reporter plasmid: ompFp | reporter plasmid: robp | reporter plasmid: soxSp | reporter plasmid: tolCp
13.5 µg/ml, genetic background: wild type | 2.94 ± 0.036 | 3.31 ± 0.28 | 3.363 ± 0.0016 | 3.09 ± 0.21 | 3.23 ± 0.11 | 3.28 ± 0.097 | 2.97 ± 0.24 | 3.02 ± 0.18
13.5 µg/ml, genetic background: ΔmarA | 3.34 ± 0.8 | 4.39 ± 0.71 | 3.67 ± 0.36 | 3.27 ± 0.52 | 3.55 ± 0.64 | 3.96 ± 0.28 | 3.11 ± 0.34 | 2.98 ± 0.37
13.5 µg/ml, genetic background: Δrob | 3 ± 0.25 | 3.07 ± 0.26 | 3.47 ± 0.37 | 3.02 ± 0.26 | 2.79 ± 0.61 | 2.73 ± 0.22 | 2.96 ± 0.29 | 3.146 ± 0.022
13.5 µg/ml, genetic background: ΔsoxS | 3.25 ± 0.17 | 3.25 ± 0.63 | 3.26 ± 0.59 | 2.91 ± 0.15 | 3.25 ± 0.19 | 3.46 ± 0.28 | 3.17 ± 0.46 | 3.05 ± 0.17
26.9 µg/ml, genetic background: wild type | 2.87 ± 0.15 | 3.2 ± 0.047 | 3.22 ± 0.2 | 2.97 ± 0.3 | 3.14 ± 0.16 | 3.384 ± 0.0081 | 2.93 ± 0.3 | 3.02 ± 0.15
26.9 µg/ml, genetic background: ΔmarA | 3.05 ± 0.48 | 4.16 ± 0.54 | 3.61 ± 0.21 | 3.07 ± 0.48 | 3.27 ± 0.77 | 3.74 ± 0.34 | 2.91 ± 0.66 | 2.76 ± 0.22
26.9 µg/ml, genetic background: Δrob | 2.97 ± 0.32 | 3.097 ± 0.013 | 3.28 ± 0.46 | 3.09 ± 0.17 | 2.63 ± 0.64 | 2.54 ± 0.18 | 2.86 ± 0.23 | 3.12 ± 0.14
26.9 µg/ml, genetic background: ΔsoxS | 3.09 ± 0.25 | 3.17 ± 0.73 | 3.2 ± 0.65 | 2.85 ± 0.13 | 3.17 ± 0.41 | 3.02 ± 0.34 | 3.18 ± 0.28 | 3.02 ± 0.052
53.9 µg/ml, genetic background: wild type | 2.54 ± 0.084 | 2.95 ± 0.2 | 3.09 ± 0.096 | 2.99 ± 0.038 | 3.07 ± 0.13 | 3.12 ± 0.15 | 2.973 ± 0.018 | 2.99 ± 0.14
53.9 µg/ml, genetic background: ΔmarA | 2.9 ± 0.54 | 3.7 ± 0.28 | 3.33 ± 0.48 | 2.96 ± 0.49 | 3.2 ± 0.78 | 3.41 ± 0.2 | 3 ± 0.7 | 2.51 ± 0.064
53.9 µg/ml, genetic background: Δrob | 2.92 ± 0.26 | 2.86 ± 0.048 | 2.97 ± 0.64 | 2.76 ± 0.064 | 2.4 ± 0.48 | 2.28 ± 0.12 | 2.91 ± 0.24 | 2.79 ± 0.028
53.9 µg/ml, genetic background: ΔsoxS | 3.01 ± 0.38 | 2.9 ± 0.81 | 2.97 ± 0.33 | 2.7 ± 0.17 | 2.91 ± 0.26 | 3.1 ± 0.23 | 2.95 ± 0.35 | 2.79 ± 0.051
107.7 µg/ml, genetic background: wild type | 1.98 ± 0.16 | 1.92 ± 0.41 | 1.81 ± 0.047 | 2.14 ± 0.2 | 1.9 ± 0.14 | 1.72 ± 0.11 | 2.51 ± 0.045 | 2.22 ± 0.1
107.7 µg/ml, genetic background: ΔmarA | 1.94 ± 0.57 | 2.04 ± 1 | 1.35 ± 0.48 | 1.73 ± 0.55 | 1.27 ± 0.17 | 2.18 ± 0.8 | 2.52 ± 0.53 | 1.554 ± 0.0062
107.7 µg/ml, genetic background: Δrob | 1.99 ± 0.44 | 0.91 ± 0.12 | 1.29 ± 0.58 | 1.67 ± 0.23 | 0.89 ± 0.086 | 0.615 ± 0.26 | 2.3 ± 0.36 | 1.82 ± 0.29
107.7 µg/ml, genetic background: ΔsoxS | 2.17 ± 0.29 | 1.09 ± 0.15 | 1.33 ± 1.1 | 1.57 ± 0.13 | 1 ± 0.47 | 0.52 ± 0.24 | 1.73 ± 0.17 | 2.03 ± 0.06
